Results are given in words; binding and its absence hold for the method and conditions named. Some results given as binding are weak or reduced against the parent protein; the word gives no strength.
Target: recombinant dimeric c-Met from R&D Systems (UniProt P08581)
Assay: direct ELISA, recombinant dimeric c-Met coated at 1.25 µg/ml, anti-mouse IgG HRP detection

Chains of the proteins cited; added tags and fusions are not shown. Residues count along the entry.
UniProt P08581, residues 25-932: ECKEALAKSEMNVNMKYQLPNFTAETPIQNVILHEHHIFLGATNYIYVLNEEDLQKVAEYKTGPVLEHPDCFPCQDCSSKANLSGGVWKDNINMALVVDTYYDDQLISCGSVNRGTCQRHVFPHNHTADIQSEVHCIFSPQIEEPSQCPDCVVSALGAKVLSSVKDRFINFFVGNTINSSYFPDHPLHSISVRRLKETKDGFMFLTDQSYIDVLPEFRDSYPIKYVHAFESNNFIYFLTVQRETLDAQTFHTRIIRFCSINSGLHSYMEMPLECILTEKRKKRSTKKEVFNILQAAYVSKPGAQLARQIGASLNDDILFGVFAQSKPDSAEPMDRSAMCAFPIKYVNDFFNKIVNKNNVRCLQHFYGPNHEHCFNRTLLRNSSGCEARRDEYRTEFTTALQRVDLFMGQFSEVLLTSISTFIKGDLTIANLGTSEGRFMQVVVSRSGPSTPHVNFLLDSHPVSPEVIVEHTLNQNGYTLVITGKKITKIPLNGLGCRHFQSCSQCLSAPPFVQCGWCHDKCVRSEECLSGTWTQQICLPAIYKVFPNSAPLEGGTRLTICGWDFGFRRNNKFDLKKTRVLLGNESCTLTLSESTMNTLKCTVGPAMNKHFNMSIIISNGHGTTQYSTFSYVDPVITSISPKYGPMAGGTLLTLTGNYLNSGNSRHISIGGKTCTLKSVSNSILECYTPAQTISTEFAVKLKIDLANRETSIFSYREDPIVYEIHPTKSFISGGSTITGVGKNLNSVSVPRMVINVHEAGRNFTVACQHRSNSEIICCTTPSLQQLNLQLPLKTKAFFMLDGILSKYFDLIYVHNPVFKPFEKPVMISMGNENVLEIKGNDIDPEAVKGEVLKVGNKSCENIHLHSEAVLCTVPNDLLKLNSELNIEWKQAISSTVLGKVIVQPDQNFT

B1: murine 224G11 Mab (antibody, mouse IgG1, V domains shown)
VH: EVQLQQSGPELVKPGASVKISCKTSGYIFTAYTMHWVRQSLGESLDWIGGIKPNNGLANYNQKFKGKATLTVDKSSSTAYMDLRSLTSEDSAVYYCARSEITTEFDYWGQGTALTVSS
VL: DIVLTQSPASLAVSLGQRATISCRASESVDSYANSFMHWYQQKPGQPPKLLIYRASNLESGIPARFSGSGSRTDFTLTINPVEADDVATYYCQQSKEDPLTFGSGTKLEMKR
In the case of B1, the binding is reported as “binds”.

From patent US20110097262A1
